Assay results: publication PMC5443842, “The Effect of Two Amino acid Residue Substitutions via RNA Editing on Dark-operative Protochlorophyllide Oxidoreductase in the Black Pine Chloroplasts” (Scientific Reports, 2017)
Changes are numbered by the printed parent chain. In names and notes the source's numbering stands. No constants are given. Whether binding was seen depends on the method and setting. In cells and extracts the contact can be indirect. Some entries that bind do so weakly or less than the wild type.

Protein sequences, listed by entry. Tags and fused reporters are not part of them.
UniProt Q04607: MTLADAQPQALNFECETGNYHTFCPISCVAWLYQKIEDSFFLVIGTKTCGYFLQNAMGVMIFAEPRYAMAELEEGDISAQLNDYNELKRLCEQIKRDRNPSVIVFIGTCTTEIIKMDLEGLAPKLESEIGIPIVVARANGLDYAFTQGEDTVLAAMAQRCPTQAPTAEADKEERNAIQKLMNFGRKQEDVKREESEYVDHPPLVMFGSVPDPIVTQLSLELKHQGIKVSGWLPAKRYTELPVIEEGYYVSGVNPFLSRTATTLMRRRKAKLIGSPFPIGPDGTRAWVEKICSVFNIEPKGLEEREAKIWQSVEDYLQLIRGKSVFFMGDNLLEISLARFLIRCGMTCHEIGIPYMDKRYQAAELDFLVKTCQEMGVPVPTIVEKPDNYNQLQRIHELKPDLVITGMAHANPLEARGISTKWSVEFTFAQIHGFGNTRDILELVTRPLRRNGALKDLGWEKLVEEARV

B1: wild-type ChlB from Leptolyngbya boryana, expressed in E. coli (natural protein, UniProt P95463 1-508, looked up)
chain: MKLAYWMYAGPAHIGTLRIASSFKNVHAIMHAPLGDDYFNVMRSMLERERDYTPVTTSVVDRHVLARGSQEKVVDNITRKDAEEHPDLIVLTPTCTSSILQEDLQNFVERAQLEAKGDVMLADVNHYRVNELQAADRTLQQIVQFYIAKARKQGNLVTEKTEKPSVNIFGMTTLGFHNNHDATELKKLMSDLGIEVNAIVPAGASVHELKSLPRAWFNLVPYRETGLLAAEFLQQEFNMPYVDITPIGIVETARCIRKIQQVINAQGANVDYEPFIDQQTRFVSQAAWFSRSIDCQNLTGKKAVVFGDNTHAAALTKILAREMGIHVLLAGTYCKYDEAWFREQVSEYCDDVLVSDDNGQIADAIARLEPAAIFGTQMERHVGKRLDIPCGVIAAPIHIQNFPVGYKPFVGYEGSNQIVDLIYNSFTLGMEDHLLEIFGGHDTKEVITKSVSADSDLNWSKDGLAELNRIPGFVRGKVKRNTEKFARDRNITQITAEVLYAAKEAVGA
notes: ChlB, subunit of DPOR (NB protein), Leptolyngbya boryana; also called WT ChlB; WT control; source: E. coli (pHANB2), in soluble fraction
B2: ChlB_R (W216R, pre-edited mimic variant of L. boryana ChlB), expressed in L. boryana YFB14 (YFB14/NB2_R) (protein, UniProt P95463 1-508)
chain: B1 chain with W216R
B3: ChlB_PR (L209P and W216R, doubly pre-edited mimic variant of L. boryana ChlB), expressed in L. boryana YFB14 (YFB14/NB2_PR) (protein, UniProt P95463 1-508)
chain: B1 chain with L209P, W216R
B4: ChlB_PR (L209P and W216R variant of L. boryana ChlB), expressed in E. coli (protein, UniProt P95463 1-508)
chain: B1 chain with L209P, W216R

Assays:
[1] = molecular target: Strep-ChlN (ChlN subunit of the NB protein of dark-operative protochlorophyllide oxidoreductase) from Leptolyngbya boryana, expressed in L. boryana YFB14 (Leptolyngbya boryana) (UniProt Q04607); assay: pull-down; ChlB variants co-expressed with Strep-ChlN in L. boryana YFB14; soluble extracts on a Strep-Tactin column in an anaerobic chamber; affinity-purified proteins detected by Western blot with anti-ChlN and anti-ChlB antisera
[2] = molecular target: Strep-ChlN from Leptolyngbya boryana, expressed in E. coli (Leptolyngbya boryana) (UniProt Q04607); assay: pull-down; ChlB variants co-expressed with Strep-ChlN in E. coli; soluble fractions on a Strep-Tactin column in an anaerobic chamber; affinity-purified proteins on SDS-PAGE stained with Coomassie Brilliant Blue, yields quantitated

Row | binding [1] | binding [2] | Binder
1 | binds | – | B1
2 | binds | – | B2
3 | no binding | – | B3
4 | – | no binding | B4
